PubChem BioAssay AID1508597 – Cure First – 2020
This is a random part of the about 2,100 reagents, under one of the conditions tested. 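Calls flag viability under 80% in either arm, not effects specific to rucaparib; the reference for percent is not stated.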 A reagent listed more than once was tested more than once; the source does not tell the runs apart. The record does not give: the 100% reference.

Assay: 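Knock-downs altering ovarian cancer cell survival with or without PARP inhibitor rucaparib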 (primary screen)
System: human ovarian carcinoma lines grown from tumours: OCI-P5x (papillary serous) and OCI-C5x (clear cell)
Reagent: siRNA pool against human genes, 1.25 pmol siRNA per well
Timing: 72 h or 96 h, depending on the cell culture
Conditions: rucaparib 20 µM (about IC30) or vehicle, present until read-out
Rucaparib or vehicle: Vehicle
Cell line: OCI-P5x (serous)
Detection: 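Luminescent ATP-based viability assay read 72 or 96 h after transfection, depending on culture, given as normalised percent viability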
Reading the numbers: viability, normalised: higher = more viable cells remaining
Active means: 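Active when normalised viability falls below 80 percent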
Meaning of the calls: active = viability under 80%; inactive = viability 80% or more

| Target gene | technical replicate | viability, normalised (%) | Outcome |
| --- | --- | --- | --- |
| CLK2 | 1 | 84.3 | inactive |
| CLK2 | 1 | 86.3 | inactive |
| CLK2 | 2 | 44.1 | active |
| CLK2 | 2 | 79 | active |
| CLK2 | 3 | 79.7 | active |
| CLK2 | 3 | 83.9 | inactive |
| BABAM2 | 1 | 84.5 | inactive |
| BABAM2 | 1 | 84.1 | inactive |
| BABAM2 | 2 | 86.6 | inactive |
| BABAM2 | 2 | 97.6 | inactive |
| BABAM2 | 3 | 102 | inactive |
| BABAM2 | 3 | 90 | inactive |
| TYMS | 1 | 83 | inactive |
| TYMS | 2 | 87.2 | inactive |
| TYMS | 3 | 115 | inactive |
| ASF1B | 1 | 65.4 | active |
| ASF1B | 2 | 62.7 | active |
| ASF1B | 3 | 58.4 | active |
| ESRRB | 1 | 71.4 | active |
| ESRRB | 2 | 75.5 | active |
| ESRRB | 3 | 85.8 | inactive |

A stretch of the results above, as a working copy:
| Target gene | technical replicate | viability, normalised (%) | Outcome |
| --- | --- | --- | --- |
| ASF1B | 1 | 65.4 | active |
| ASF1B | 2 | 62.7 | active |
| ASF1B | 3 | 58.4 | active |
| ESRRB | 1 | 71.4 | active |
| ESRRB | 2 | 75.5 | active |

Next records follow.
| Target gene | technical replicate | viability, normalised (%) | Outcome |
| --- | --- | --- | --- |
| BRD3 | 1 | 49.2 | active |
| BRD3 | 1 | 72.4 | active |
| BRD3 | 2 | 51.3 | active |
| BRD3 | 2 | 57.5 | active |
| BRD3 | 3 | 48.5 | active |
| BRD3 | 3 | 66.6 | active |
| PDE9A | 1 | 70.3 | active |
| PDE9A | 2 | 53.4 | active |
| PDE9A | 3 | 76.2 | active |
| TRIB2 | 1 | 76.4 | active |
| TRIB2 | 2 | 65.7 | active |
| TRIB2 | 3 | 77.3 | active |
| BRD2 | 1 | 75.5 | active |
| BRD2 | 1 | 60.2 | active |
| BRD2 | 2 | 60.3 | active |
| BRD2 | 2 | 88.5 | inactive |
| BRD2 | 3 | 51.9 | active |
| BRD2 | 3 | 78.1 | active |
